No constants are given. Whether binding was seen depends on the method and setting. In cells and extracts the contact can be indirect. Binding calls can cover weak binding; strength is not graded here. Where a sequence is shown, tags or fusion partners need not be part of it.
Biological target: myc-tagged RicA (Brucella abortus) (UniProt Q2YQG1)
Test: co-IP

B1: GFP-tagged Rab2a S20N (dominant-negative) (protein, UniProt P61019 1-212)
chain: MAYAYLFKYIIIGDTGVGKNCLLLQFTDKRFQPVHDLTIGVEFGARMITIDGKQIKLQIWDTAGQESFRSITRSYYRGAAGALLVYDITRRDTFNHLTTWLEDARQHSNSNMVIMLIGNKSDLESRREVKKEEGEAFAREHGLIFMETSAKTASNVEEAFINTAKEIYEKIQEGVFDINNEANGIKIGPQHAATNATHAGNQGGQQAGGGCC
B1 was tested, and the binding was “binds”.

Reference: PMC7157780
